PubChem BioAssay AID1508597 – Cure First – 2020

Test: 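Survival screen with siRNA in ovarian cancer cells derived from patients, with or without rucaparib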 (primary screen)
Cells: human ovarian carcinoma lines grown from tumours: OCI-P5x (papillary serous) and OCI-C5x (clear cell)
Reagents: siRNA pool against human genes, 1.25 pmol siRNA per well
Timing: 72 h or 96 h, depending on the cell culture
Treatment: rucaparib 20 µM (about IC30) or vehicle, present until read-out
Rucaparib or vehicle: Vehicle
Cell line: OCI-C5x (clear cell)
Detection: 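Luminescent ATP-based viability assay read 72 or 96 h after transfection, depending on culture, given as normalised percent viability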
Direction: viability, normalised: higher = more viable cells remaining
Call rule: 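Active when normalised viability falls below 80 percent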
Meaning of the calls: active = viability under 80%; inactive = viability 80% or more
Shown is an unselected part of the about 2,100 reagents, in one setting of the screen. 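Calls flag viability under 80% in either arm, not effects specific to rucaparib; the reference for percent is not stated.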 Some reagents were tested in more than one well and are listed for each. No sequences are given here. Not given: the 100% reference.

gene knocked down,technical replicate,"viability, normalised (%)",outcome
MAP3K12 (GeneID 7786),1,75.2,active
MAP3K12 (GeneID 7786),2,68.1,active
MAP3K12 (GeneID 7786),3,80.1,inactive
MED6 (GeneID 10001),1,45.7,active
MED6 (GeneID 10001),2,40.4,active
MED6 (GeneID 10001),3,48.9,active
CHMP5 (GeneID 51510),1,42.1,active
CHMP5 (GeneID 51510),2,23.9,active
CHMP5 (GeneID 51510),3,32.3,active
TCF3 (GeneID 6929),1,40.1,active
TCF3 (GeneID 6929),2,47.1,active
TCF3 (GeneID 6929),3,47.4,active
DSCC1 (GeneID 79075),1,77.5,active
DSCC1 (GeneID 79075),2,71.8,active
DSCC1 (GeneID 79075),3,70.7,active
UCK1 (GeneID 83549),1,107,inactive
UCK1 (GeneID 83549),2,56,active
UCK1 (GeneID 83549),3,52.9,active
TFRC (GeneID 7037),1,83.6,inactive
TFRC (GeneID 7037),2,63.2,active
TFRC (GeneID 7037),3,66.5,active
HK3 (GeneID 3101),1,61.7,active
HK3 (GeneID 3101),2,56.1,active
HK3 (GeneID 3101),3,52.6,active
RPIA (GeneID 22934),1,37.6,active
RPIA (GeneID 22934),2,38.8,active
RPIA (GeneID 22934),3,34.5,active
SMARCB1 (GeneID 6598),1,49.5,active
SMARCB1 (GeneID 6598),2,42.5,active
SMARCB1 (GeneID 6598),3,56.7,active
EZH1 (GeneID 2145),1,44.1,active
EZH1 (GeneID 2145),2,45.8,active
EZH1 (GeneID 2145),3,54.8,active
KDM5D (GeneID 8284),1,36.1,active
KDM5D (GeneID 8284),2,53.8,active
KDM5D (GeneID 8284),3,48,active
MAST4 (GeneID 375449),1,56.2,active
MAST4 (GeneID 375449),2,59.2,active
MAST4 (GeneID 375449),3,69.4,active
PRDM13 (GeneID 59336),1,34.2,active
PRDM13 (GeneID 59336),2,42.5,active
PRDM13 (GeneID 59336),3,47.7,active
ENPP3 (GeneID 5169),1,48.8,active
ENPP3 (GeneID 5169),2,56,active
ENPP3 (GeneID 5169),3,44,active
MAT2A (GeneID 4144),1,43.5,active
MAT2A (GeneID 4144),2,45.1,active
MAT2A (GeneID 4144),3,40.5,active
GLI1 (GeneID 2735),1,59.5,active
GLI1 (GeneID 2735),2,61.1,active
GLI1 (GeneID 2735),3,50.6,active
RECQL4 (GeneID 9401),1,55.5,active
RECQL4 (GeneID 9401),1,77.6,active
RECQL4 (GeneID 9401),1,59,active
RECQL4 (GeneID 9401),2,81.1,inactive
RECQL4 (GeneID 9401),2,36,active
RECQL4 (GeneID 9401),2,76.1,active
RECQL4 (GeneID 9401),3,80.4,inactive
RECQL4 (GeneID 9401),3,64.6,active
RECQL4 (GeneID 9401),3,40.7,active

5 entries from above, reformatted:
gene knocked down | technical replicate | viability, normalised (%) | outcome
KDM5D (GeneID 8284) | 3 | 48 | active
MAST4 (GeneID 375449) | 1 | 56.2 | active
MAST4 (GeneID 375449) | 2 | 59.2 | active
MAST4 (GeneID 375449) | 3 | 69.4 | active
PRDM13 (GeneID 59336) | 1 | 34.2 | active
